# These are yes or no findings as the source states them, for the method shown. In cells and extracts the contact can be indirect. Some binding calls cover weakened binding; strength is not graded here.
# Amino acid sequences for entries named in this document (tags omitted).
# UniProt Q02248: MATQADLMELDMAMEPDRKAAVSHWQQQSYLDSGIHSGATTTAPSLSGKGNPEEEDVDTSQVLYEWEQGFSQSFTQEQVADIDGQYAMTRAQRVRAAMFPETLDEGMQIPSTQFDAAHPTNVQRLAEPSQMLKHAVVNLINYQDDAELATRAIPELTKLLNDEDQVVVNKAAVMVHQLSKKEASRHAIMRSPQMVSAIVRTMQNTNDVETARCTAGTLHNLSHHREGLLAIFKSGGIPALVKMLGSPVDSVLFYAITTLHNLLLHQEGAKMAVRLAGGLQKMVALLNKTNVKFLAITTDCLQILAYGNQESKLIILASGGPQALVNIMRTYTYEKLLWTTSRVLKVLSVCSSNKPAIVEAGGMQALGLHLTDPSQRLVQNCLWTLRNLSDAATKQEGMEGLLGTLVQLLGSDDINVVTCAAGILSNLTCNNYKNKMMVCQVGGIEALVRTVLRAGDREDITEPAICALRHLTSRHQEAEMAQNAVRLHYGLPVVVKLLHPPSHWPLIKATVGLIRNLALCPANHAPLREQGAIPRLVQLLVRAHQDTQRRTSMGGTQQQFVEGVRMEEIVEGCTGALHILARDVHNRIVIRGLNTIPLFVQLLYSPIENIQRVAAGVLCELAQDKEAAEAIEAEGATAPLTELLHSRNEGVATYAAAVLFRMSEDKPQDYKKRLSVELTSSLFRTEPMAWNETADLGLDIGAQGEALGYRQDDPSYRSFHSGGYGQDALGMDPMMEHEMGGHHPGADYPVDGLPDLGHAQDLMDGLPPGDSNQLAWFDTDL
# Molecular target: T1, vinculin (mouse (endogenous in C2C12)) (UniProt Q64727)
# T1 sequence: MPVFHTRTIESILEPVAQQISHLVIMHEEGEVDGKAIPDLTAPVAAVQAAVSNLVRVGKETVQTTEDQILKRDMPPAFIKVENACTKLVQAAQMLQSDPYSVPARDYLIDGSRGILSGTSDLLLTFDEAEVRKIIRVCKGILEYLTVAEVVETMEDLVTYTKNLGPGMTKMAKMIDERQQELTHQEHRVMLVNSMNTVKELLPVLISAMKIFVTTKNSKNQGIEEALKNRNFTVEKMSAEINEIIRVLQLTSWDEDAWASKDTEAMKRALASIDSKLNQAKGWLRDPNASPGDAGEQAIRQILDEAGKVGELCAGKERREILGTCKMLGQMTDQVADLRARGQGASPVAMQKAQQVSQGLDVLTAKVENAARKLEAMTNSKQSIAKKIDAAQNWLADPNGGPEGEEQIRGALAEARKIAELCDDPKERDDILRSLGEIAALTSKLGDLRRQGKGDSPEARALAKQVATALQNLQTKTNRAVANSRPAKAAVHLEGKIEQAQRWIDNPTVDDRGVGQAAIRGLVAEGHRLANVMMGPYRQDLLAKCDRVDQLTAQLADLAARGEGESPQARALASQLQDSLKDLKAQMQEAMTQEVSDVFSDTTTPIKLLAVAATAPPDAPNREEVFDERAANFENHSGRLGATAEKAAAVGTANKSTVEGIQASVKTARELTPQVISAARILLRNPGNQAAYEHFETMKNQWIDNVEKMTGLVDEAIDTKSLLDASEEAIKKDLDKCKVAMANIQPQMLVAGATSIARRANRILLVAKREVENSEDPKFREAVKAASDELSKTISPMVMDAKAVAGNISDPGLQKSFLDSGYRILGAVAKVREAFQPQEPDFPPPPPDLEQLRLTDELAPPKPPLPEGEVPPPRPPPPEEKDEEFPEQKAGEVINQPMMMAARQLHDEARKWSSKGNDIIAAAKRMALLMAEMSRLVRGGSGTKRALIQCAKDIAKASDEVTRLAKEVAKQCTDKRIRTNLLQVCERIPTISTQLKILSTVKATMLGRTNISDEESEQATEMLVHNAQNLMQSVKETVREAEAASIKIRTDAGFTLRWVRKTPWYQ
# Assay: co-IP
substance,measurement,value
β-catenin (from UniProt Q02248 1-781),binding,binds
